Experimental data reported in patent publication US20170362317A1.
Positions count from the first letter of the chain named. These are yes or no findings as the source states them, for the method shown. Some entries that bind do so weakly or less than the wild type.

The chains behind the UniProt entries cited, without tags or fusion partners. Residues count along the entry.
UniProt P05231, residues 30-212: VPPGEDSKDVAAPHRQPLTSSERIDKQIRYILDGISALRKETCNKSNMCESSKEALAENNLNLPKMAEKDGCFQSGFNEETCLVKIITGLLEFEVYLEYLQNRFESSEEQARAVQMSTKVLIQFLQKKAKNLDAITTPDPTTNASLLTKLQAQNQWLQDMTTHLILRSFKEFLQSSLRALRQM

B1: Ag1-4-6 (fully human anti-IL6 IgG1 antibody) (antibody, V domains shown)
VH: EVQLVESGPALVKPTQTLTLTCTFSGFSLSTGGMSVSWIRQPPGKALEWLARIDWDDDKFYTPSLKTRLTISRDTSKNQVVLIMTNMDPVDTATYYCARMHIDDSNGYYSDAFHIWGQGTMVTVSS
VL: EIVLTQSPATLSVSPGERVTLSCRDSQSVSSTSLAWYQQKSGQAPRLLIYDTSNRATGIPARFSGGGSGTDFTLTISSLEPEDFAVYYCSFVSRPYPRFTFGQGTKVEIK
B2: HAg1T-3-10 (fully human anti-IL6 IgG1 antibody) (antibody, V domains shown)
VH: B1 VH with Y109F
VL: B1 VL
B3: Hag1T-3-10 phage-displayed scFv clone (scFv, V domains shown)
VH: B1 VH with Y109F
VL: B1 VL
B4: Ag1-4-6 (FB704) phage-displayed scFv clone (scFv, V domains shown)
VH: B1 VH
VL: B1 VL
B5: 1-4-62 (fully human anti-IL6 IgG1 antibody) (antibody, V domains shown)
VH: B1 VH
VL: B1 VL with S90L, F91V, V92R, S93N, R94N, P95W, Y96P

Legend:
[1] = target: recombinant human interleukin-6 (IL6) (human) (UniProt P05231); test: ELISA, plate coated with recombinant human IL6 at 2 µg/ml, FB704 in four-fold serial dilutions from 2 µg/ml, HRP-labeled goat anti-human IgG, A450
[2] = target: recombinant human interleukin-6 (IL6) (human) (UniProt P05231); test: ELISA, plate coated with recombinant human IL6 at 2 µg/ml, FB704 in four-fold serial dilutions from 2 µg/ml, HRP-labeled goat anti-human IgG, A450 [Cont'd) B]
[3] = target: recombinant human interleukin-6 (IL6) (human) (UniProt P05231); test: ELISA on coated IL6 and western blot, whole human IgG1
[4] = target: recombinant human interleukin-6 (IL6) (human) (UniProt P05231); test: ELISA, cytokine coated on plate
[5] = target: recombinant human interleukin-6 (IL6) (human) (UniProt P05231); test: biopanning and ELISA of phage-displayed scFv clones on coated recombinant IL6

Binder	binding [3]	binding [5]	also measured
B1	binds	–	binding [1]: binds; binding [2]: binds; binding [4]: binds
B2	binds	–	–
B3	–	binds	–
B4	–	binds	–
B5	binds	–	–
